In PubChem BioAssay AID540256 (National Center for Advancing Translational Sciences (NCATS), 2011):
“And” between values parts separate entries of the source, which are not always exact repeats. Identical values can stand only once. About 3,700 (1.2%) of roughly 300,000 compounds were called active. The shares of active, inactive and inconclusive entries below differ from those in the screen. The call rests on the fitted dose curve; tested in HEK293 cells. Potencies of inconclusive entries are doubtful fits and often do not repeat.

Assay: qHTS for Inhibitors of binding or entry into cells for Lassa Virus; further: nearly all actives have a fitted effect of over 50% in size
Details: Lassa virus pseudotype entry inhibition, cell reporter; series mostly up to 37.9 µM
Potency means the concentration at half of the fitted maximal effect.

Compound	Potency
Cc1ccc(F)cc1NC(=O)CSc1nnc(CNC(=O)c2ccco2)n1C	inactive
O=C(NC(Cc1c[nH]c2ccccc12)C(=O)N/N=C/c1cccnc1)c1cccs1 (configuration not stated)	inconclusive: 5.62 µM [inhibitor, full curve, poor fit]
CC12C=C(C=Cc3ccc(Br)cc3)C(C)(C1)C(c1ccc(Br)cc1)CC2=O (configuration not stated)	inactive
CCOc1cc(CNc2ccc3c(c2)OCCO3)cc(Br)c1OCC(N)=O	inactive
COc1ccc(O[C@H]2C=C[C@@H](c3ccccc3)O[C@H]2CON=C2c3cc(OC)ccc3O[C@H](c3cccc(OC)c3)[C@H]2O)cc1	inactive
COc1ccc(COc2cc(-c3cccc(OC)c3)nc3ccc(NC(=O)c4ccc(C)cc4)cc23)cc1	inconclusive: 29.1 µM [inhibitor, single point]
O=C(CCCn1c(=O)c2ccccc2n(CC(=O)Nc2cccc(Cl)c2)c1=O)NCc1ccc2c(c1)OCO2	inactive
O=C(c1cccs1)N1CCN(C(=O)c2cccs2)C1=S	inconclusive: 35.5 µM [inhibitor, single point]
CC(C)(C)n1ncc(Oc2ccccc2[N+](=O)[O-])c(Cl)c1=O	inactive
COC(=O)c1cc(Cl)c(NC(=O)Cc2ccccc2)cc1OC	inconclusive: 8.91 µM [inhibitor, partial curve]
COc1ccc(C(=O)NC(=S)Nc2ccc3oc(=O)ccc3c2)cc1[N+](=O)[O-]	inactive
Cc1nn(-c2ccccc2)c(N)c1Sc1ccccc1[N+](=O)[O-]	active: 6.31 µM
O=C(O)c1cccc(S(=O)(=O)Nc2ccc(Oc3ccccc3)cc2)c1	inconclusive: 15.8 µM [inhibitor, single point]
CCC(=O)N1CCc2cc(Br)cc(S(=O)(=O)CCC(=O)N3CCN(c4ccc(OC)cc4)CC3)c21	inactive
Cn1cccc1C(=O)OCc1cc(Cl)cc2c1OCOC2	inactive
COc1ccc(Cl)cc1N1C(=O)/C(=C/c2sccc2C)N=C1SCC(=O)NC1CC1	inconclusive: 10 µM [inhibitor, partial curve, poor fit]
Cc1cc(C)cc(-n2ccnc2SCC(=O)Nc2ccc(C)cc2C)c1	inconclusive: 35.5 µM [inhibitor, single point]
N#Cc1nc(-c2cccc(Cl)c2)oc1N1CCC(C(N)=O)CC1	inconclusive: 1.26 µM [activator, single point]
COc1ccc(-c2cc(C(=O)NCc3ccc(F)cc3)no2)cc1	inconclusive: 35.5 µM [activator, single point]
CC1CC(C)CN(Cc2nc(N)nc(Nc3ccc4ccccc4c3)n2)C1 (configuration not stated)	inconclusive: 20 µM [inhibitor, partial curve, poor fit]
COc1ccc(NC(=O)CN(C)C(=O)c2ccc(N3CCCCC3)c([N+](=O)[O-])c2)cc1	inactive
Cc1ccc(C(=O)Nc2ccc3nccnc3c2)cc1	inconclusive: 7.94 µM [inhibitor, partial curve, poor fit]
CC1(C)CC2CC(C)(CN2c2ncnc3ccc(Br)cc23)C1 (configuration not stated)	inconclusive: 10.3 µM [inhibitor, single point]

Compound	Potency
COc1ccccc1N1CCN(S(=O)(=O)c2ccc3c(c2)CCCN3C(C)=O)CC1	inactive
CCC(C(=O)Nc1cc(-c2cn3cccnc3n2)ccc1C)c1ccccc1 (configuration not stated)	inconclusive: 35.5 µM [inhibitor, single point]
COc1ccc(Nc2ncc(C(=O)Nc3ccc(F)cc3F)c3ccccc23)cc1	inactive
CC(C)c1ccc(-c2cc(C(=O)NN3CCN(C)CC3)c3ccccc3n2)cc1	inconclusive: 18.4 µM [inhibitor, single point]
CCn1c(C)nc2cc(C(=O)NN=Cc3ccc([N+](=O)[O-])cc3)ccc21	inactive
Nc1nc(NCC2CCCO2)nc(Nc2ccc(F)cc2)c1[N+](=O)[O-] (configuration not stated)	inactive
C/C=C(/C)C(=O)O[C@@H]1c2c(ccc3ccc(=O)oc23)O[C@@H]1C(C)(C)OC(=O)/C(C)=C\C	inconclusive: 18.4 µM [inhibitor, single point]
CC(Sc1ccccc1)C(=O)NCC1COc2ccccc2O1 (configuration not stated)	inactive
Cc1nn(-c2ccccc2)c(C)c1/C=N/NC(=O)c1ccccc1NS(=O)(=O)c1cccs1	inactive
CSC1=N/C(=C\c2cccnc2)C(=O)N1c1ccccc1	inconclusive: 1.26 µM [inhibitor, single point]
Cc1ccc2c(C(=O)CN3CCOCC3)c(C)[nH]c2c1	inactive
Cc1cc(=O)n2nc(N3CCC(C(=O)NCCCOC(C)C)CC3)sc2n1	inactive
CC(C)COc1ccc(-c2nnc(-c3ccco3)o2)cc1	active: 7.3 µM
Cc1ccc(C)c(NC(=O)CCN2CCC(C)CC2)c1	inactive
N#CCc1c(C#N)c(N)nc(N2CCN(S(=O)(=O)c3ccccc3F)CC2)c1C#N	inconclusive: 0.398 µM [inhibitor, partial curve, poor fit]
Cn1c(COc2ccccc2)nnc1SCC(=O)c1cccc([N+](=O)[O-])c1	inactive
CCOc1ccccc1CN1CCNC(=O)C1CC(=O)NC1CCCCC1 (configuration not stated)	inconclusive: 7.94 µM [activator, single point]
Cc1ccc(N2C(=O)C(Cl)=C(N3CCCCCC3)C2=O)c(C)c1	inconclusive: 22.4 µM [inhibitor, partial curve, poor fit]
CCCCOC(=O)c1ccc(NC(=O)c2ccc3c(c2)CCCN3S(C)(=O)=O)cc1	inconclusive: 10 µM [inhibitor, single point]
CC(C)(C)c1cc(NC(=O)c2cccc(S(=O)(=O)N3CCOCC3)c2)no1	inconclusive: 16.4 µM [inhibitor, single point]
O=C(CSc1nc2ccccc2nc1Cc1ccc(Cl)cc1)N1CCCCC1	inconclusive: 20 µM [inhibitor, single point]
CCn1c(=O)c(C(=O)Nc2ccc(C)cc2)c(O)c2ccccc21	inconclusive: 1.12 µM [inhibitor, partial curve, poor fit]
Cc1cccc(NS(=O)(=O)c2ccc3c(c2)n(C)c(=O)n3C)c1C	inactive

Compound	Potency
COCON1C(=O)CN(C(C)=O)C1c1ccc(Cl)cc1Cl (configuration not stated)	inconclusive: 1.58 µM [inhibitor, partial curve, poor fit]
Cc1ccc(NC(=O)C2CCN(S(=O)(=O)c3ccc4c(c3)CCCC(=O)N4)CC2)c(Br)c1	inconclusive: 20 µM [inhibitor, single point] and inconclusive: 891 nM [inhibitor, full curve, poor fit]
Cc1cc(C(=O)CCC(=O)N2CCN(S(=O)(=O)c3cccs3)CC2)c(C)s1	inconclusive: 35.5 µM [inhibitor, single point]
Cc1ccc(NC(=O)CN2CCCCCC2)cc1Br	inactive
Cc1ccccc1OCC(=O)N/N=C/c1ccc(Sc2nc3ccccc3s2)o1	inconclusive: 16.4 µM [inhibitor, single point]
CC(C)(C)c1csc(NC(=O)c2ccc(Cl)s2)n1	inconclusive: 11.2 µM [inhibitor, partial curve, poor fit]
C/C(=N\NS(=O)(=O)c1ccccc1)c1ccc2c(c1)OCO2	inactive
Cc1cc(C(=O)Nc2sc(C)c(-c3ccc(F)cc3)c2C(N)=O)no1	inconclusive: 0.251 µM [activator, full curve, poor fit]
COc1ccc(C(=O)N2CCN(CCNC(=O)C(=O)Nc3ccc(Br)cc3)CC2)cc1	inconclusive: 3.16 µM [inhibitor, partial curve, poor fit]
CCc1ccccc1-n1c(SCC(=O)Nc2ccc(C)cc2)nc2n[nH]c(C)c2c1=N	inconclusive: 35.5 µM [inhibitor, single point]
CCC/C(C)=N/NC(=O)c1ccccc1O	inactive
CSc1ccc(C2C(C#N)=C(N)N(c3ccccc3)C3=C2C(=O)CCC3)cc1 (configuration not stated)	inconclusive: 20 µM [inhibitor, partial curve, poor fit]
CCNC(=O)NC(=O)C(C)OC(=O)c1cc(S(=O)(=O)N2CCCCCC2)ccc1OC (configuration not stated)	inconclusive: 15.8 µM [inhibitor, partial curve, poor fit]
CCOC(=O)c1cnc(Nc2nc3ccccc3o2)nc1CSc1ncccn1	inconclusive: 7.08 µM [inhibitor, partial curve, poor fit]
COc1ccccc1Nc1ccc(NS(=O)(=O)c2ccc(C(C)=O)cc2)cc1	inconclusive: 6.31 µM [inhibitor, full curve, poor fit]
CCCCCOc1ccc(OC(=O)c2ccncc2)cc1	inconclusive: 23.1 µM [inhibitor, single point]
Cc1ccc(C(=O)Nc2nnc(-c3ccco3)o2)cc1	inconclusive: 35.5 µM [inhibitor, single point]
O=C(c1c[nH]c2ccc(S(=O)(=O)N3CCOCC3)cc2c1=O)N1CCN(c2ccccn2)CC1	inconclusive: 7.08 µM [inhibitor, partial curve, poor fit]
CCCCC(=O)N/N=C/c1ccc(Sc2cccc3cccnc23)o1	inconclusive: 10 µM [inhibitor, partial curve]
CCC1CCCCN1S(=O)(=O)c1ccc2c(c1)CCN2C(=O)C1CCC1 (configuration not stated)	inconclusive: 17.8 µM [inhibitor, partial curve, poor fit]
N=c1c2c(n(Cc3ccc(Br)cc3)c3c1CCC3)CCCC2	inconclusive: 9.2 µM [inhibitor, partial curve, poor fit]
